# In PubChem BioAssay (NCATS):
# The shares of active, inactive and inconclusive entries below differ from those in the screen. For part of these data: Where the call is inconclusive, the potency comes from a doubtful curve fit. Active and inactive are the calls of the source. The call rests on the fitted dose curve; in most records, active means well fitted curve in the direction sought with a large enough effect; inconclusive means small, poorly fitted or top-dose-only effect, or another doubt; inactive means no such curve, though single readings can be large; an effect the other way counts as inactive or inconclusive.
# Experiments:
# [1] = Quantitative High-Throughput drug screen in 47 multiple myeloma cell lines against the NCATS MIPE library collection: JIM3_ECACC cell viability assay (AID 1918963; further: potency means the concentration at half of the fitted maximal effect; nearly all actives have a fitted effect of over 35% in size)
# Method in brief: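 Primary qHTS used for cherry-picking: cells at 500/well, library compounds for 48 h (37C, 5% CO2), luminescent ATP assay.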
# [2] = Quantitative High-Throughput drug screen in 47 multiple myeloma cell lines against the NCATS MIPE library collection: JIM1_ECACC cell viability assay (AID 1918964); settings: JIM1 myeloma viability, CellTiter-Glo ATP luminescence, 48 h; viability (% of DMSO): at 45.8 µM (top of the series)
# Method in brief: (§1)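 Approved and investigational drugs from MIPE 4.0 were added by pin tool to 500 cells per well. After 48 hours at 37C, ATP-based CellTiter-Glo luminescence indicated remaining viability.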
# [3] = Quantitative High-Throughput drug screen in 47 multiple myeloma cell lines against the NCATS MIPE library collection: INA6_PLB cell viability assay (AID 1918965; further: potency means the concentration at half of the fitted maximal effect; nearly all actives have a fitted effect of over 55% in size)
# Method in brief: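 We plated 500 myeloma cells per well, pinned in MIPE 4.0 compounds, and incubated for 48 hours at 37C. ATP was then quantified with CellTiter-Glo, with DMSO and media-only wells defining 100% and 0%.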
# [4] = Quantitative High-Throughput drug screen in 47 multiple myeloma cell lines against the NCATS MIPE library collection: JJN3_DSMZ cell viability assay (AID 1918966; further: nearly all actives have a fitted effect of over 50% in size); settings: JJN3 myeloma cells viability, CellTiter-Glo ATP, 48 h; viability, % of DMSO: at 45.8 µM (top of the series)
# Method in brief: as §1
# [5] = Quantitative High-Throughput drug screen in 47 multiple myeloma cell lines against the NCATS MIPE library collection: H1112_PLB cell viability assay (AID 1918967; further: nearly all actives have a fitted effect of over 30% in size)
# Method in brief: as §1
# [6] = Quantitative High-Throughput drug screen in 47 multiple myeloma cell lines against the NCATS MIPE library collection: KMS12BM_JCRB cell viability assay (AID 1918971); further: potency means the concentration at half of the fitted maximal effect; nearly all actives have a fitted effect of over 35% in size
# Method in brief: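 Luminescent ATP measurement with CellTiter-Glo gives viability, scaled between DMSO-only wells (100%) and media-only wells (0%). Cells, 500 per well, faced library compounds for 48 hours at 37C.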
# [7] = Quantitative High-Throughput drug screen in 47 multiple myeloma cell lines against the NCATS MIPE library collection: KMS20_JCRB cell viability assay (AID 1918973); settings: CellTiter-Glo ATP, 48 h; viability (% of DMSO): at 45.8 µM (top of the series); further: potency means the concentration at half of the fitted maximal effect; nearly all actives have a fitted effect of over 45% in size
# Method in brief: as §1
# [8] = Quantitative High-Throughput drug screen in 47 multiple myeloma cell lines against the NCATS MIPE library collection: KMS21BM_JCRB cell viability assay (AID 1918974); further: potency means the concentration at half of the fitted maximal effect
# Method in brief: as §1
# [9] = Quantitative High-Throughput drug screen in 47 multiple myeloma cell lines against the NCATS MIPE library collection: MMM1_PLB cell viability assay (AID 1918976); further: potency means the concentration at half of the fitted maximal effect; nearly all actives have a fitted effect of over 35% in size
# Method in brief: (§2)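 Plated at 500 cells per well, myeloma lines received MIPE 4.0 compounds by pin tool. Following 48 h culture at 37 °C, CellTiter-Glo luminescence gave viability relative to DMSO and media-only controls.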
# [10] = Quantitative High-Throughput drug screen in 47 multiple myeloma cell lines against the NCATS MIPE library collection: MOLP8_DSMZ cell viability assay (AID 1918977); settings: MOLP8 myeloma viability, CellTiter-Glo ATP luminescence, 48 h; viability (% of control): at 45.8 µM (top of the series); further: nearly all actives have a fitted effect of over 45% in size
# Method in brief: as §2
# [11] = Quantitative High-Throughput drug screen in 47 multiple myeloma cell lines against the NCATS MIPE library collection: OCIMY1_PLB cell viability assay (AID 1918979); further: nearly all actives have a fitted effect of over 35% in size
# Method in brief: as §2
# [12] = Quantitative High-Throughput drug screen in 47 multiple myeloma cell lines against the NCATS MIPE library collection: MM1S_ATCC cell viability assay (AID 1918980); further: potency means the concentration at half of the fitted maximal effect; nearly all actives have a fitted effect of over 45% in size
# Method in brief: as §2
# [13] = Quantitative High-Throughput drug screen in 47 multiple myeloma cell lines against the NCATS MIPE library collection: MM1R_ATCC cell viability assay (AID 1918981)
# Method in brief: as §2
# [14] = Quantitative High-Throughput drug screen in 47 multiple myeloma cell lines against the NCATS MIPE library collection: KMS28PE_JCRB cell viability assay (AID 1918983); further: nearly all actives have a fitted effect of over 35% in size
# Method in brief: as §2
# [15] = Quantitative High-Throughput drug screen in 47 multiple myeloma cell lines against the NCATS MIPE library collection: L363_DSMZ cell viability assay (AID 1918984); settings: L363 myeloma viability, CellTiter-Glo ATP luminescence, 48 h; viability (% of control): at 45.8 µM (top of the series); further: potency means the concentration at half of the fitted maximal effect; nearly all actives have a fitted effect of over 40% in size
# Method in brief: as §2
# [16] = Quantitative High-Throughput drug screen in 47 multiple myeloma cell lines against the NCATS MIPE library collection: KMS34_JCRB cell viability assay (AID 1918985); further: nearly all actives have a fitted effect of over 40% in size
# Method in brief: as §2
# [17] = Quantitative High-Throughput drug screen in 47 multiple myeloma cell lines against the NCATS MIPE library collection: OCIMY5_PLB cell viability assay (AID 1918988);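 further: 100% = DMSO-treated wells and 0% = wells with media alone; nearly all actives have a fitted effect of over 65% in size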
# Method in brief: as §2
# [18] = Quantitative High-Throughput drug screen in 47 multiple myeloma cell lines against the NCATS MIPE library collection: OPM1_PLB cell viability assay (AID 1918989); further: nearly all actives have a fitted effect of over 40% in size
# Method in brief: as §2
# [19] = Quantitative High-Throughput drug screen in 47 multiple myeloma cell lines against the NCATS MIPE library collection: SKMM1_PLB cell viability assay (AID 1919863); settings: SKMM1 myeloma viability, CellTiter-Glo ATP, 48 h; viability: stronger effect = lower value
# Method in brief: as §2
# [20] = Quantitative High-Throughput drug screen in 47 multiple myeloma cell lines against the NCATS MIPE library collection: VP6_DJ cell viability assay (AID 1919867); further: nearly all actives have a fitted effect of over 40% in size
# Method in brief: as §2
# [21] = Quantitative High-Throughput drug screen in 47 multiple myeloma cell lines against the NCATS MIPE library collection: UTMC2_PLB cell viability assay (AID 1919868); settings: CellTiter-Glo ATP luminescence, 48 h; viability (% of DMSO control): at 45.8 µM (top of the series); further: potency means the concentration at half of the fitted maximal effect; nearly all actives have a fitted effect of over 55% in size
# Method in brief: as §2
# [22] = Quantitative High-Throughput drug screen in 47 multiple myeloma cell lines against the NCATS MIPE library collection: KMS11_JCRBsus cell viability assay (AID 1919873); further: potency means the concentration at half of the fitted maximal effect; nearly all actives have a fitted effect of over 50% in size
# Method in brief: as §2
# [23] = Quantitative High-Throughput drug screen in 47 multiple myeloma cell lines against the NCATS MIPE library collection: KMS28BM_JCRB cell viability assay (AID 1919874); further: nearly all actives have a fitted effect of over 35% in size
# Method in brief: as §2
# [24] = system: Es-2; assay: Primary qHTS to identify gynecologic anti-cancer compounds using libraries of approved drugs and bioactive compounds (AID 1345084); settings: Gynecologic cancer cell panel viability, ATPlite luminescence, 48 h; series mostly up to 57.5 µM; further: on the % scale 0 is the no-effect control and ±100 the full control effect; nearly all actives have a fitted effect of over 55% in size
# Method in brief: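 Luminescence from the ATPlite ATP-monitoring reagent indicates viable cell number; lower signal means cytotoxicity. Cells received compound 16 h after seeding and were exposed for 48 h across five concentrations.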
structure (smiles),measurement,setting,value
OC(CCN1CCCCC1)(c1ccccc1)C1CC2C=CC1C2 (centres undefined),Potency,[1],inconclusive: 1 nM
same,Potency,[2],inactive
same,Potency,[3],"inconclusive: 93.5 nM [rising, full curve, poor fit]"
same,"viability, % of DMSO",[4],inconclusive: 194%
same,Potency,[5],inactive
same,Potency,[6],"inconclusive: 1.7 nM [rising, full curve, poor fit]"
same,Potency,[7],"inconclusive: 3720 nM [rising, partial curve, poor fit]"
same,Potency,[8],"inconclusive: 2.1 nM [rising, full curve, poor fit]"
same,Potency,[9],"inconclusive: 16.6 nM [rising, full curve, poor fit]"
same,Potency,[10],inactive
same,Potency,[11],inactive
same,Potency,[12],"inconclusive: 10.5 nM [rising, full curve, poor fit]"
same,Potency,[13],"inconclusive: 5.9 nM [rising, full curve, poor fit]"
same,Potency,[14],inactive
same,Potency,[15],"inconclusive: 5900 nM [rising, partial curve, poor fit]"
same,Potency,[16],inactive
same,Potency,[17],inactive
same,Potency,[18],inactive
same,Potency,[19],inconclusive: 1 nM [cytotoxic]
same,Potency,[20],inactive
same,Potency,[21],"inconclusive: 662 nM [rising, full curve, poor fit]"
same,Potency,[22],"inconclusive: 11800 nM [rising, single point]"
same,Potency,[23],inactive
same,Potency,[24],inactive

# A stretch taken from the entries so far, for reference:
structure (smiles),measurement,setting,value
OC(CCN1CCCCC1)(c1ccccc1)C1CC2C=CC1C2 (centres undefined),Potency,[6],"inconclusive: 1.7 nM [rising, full curve, poor fit]"
same,Potency,[7],"inconclusive: 3720 nM [rising, partial curve, poor fit]"
same,Potency,[8],"inconclusive: 2.1 nM [rising, full curve, poor fit]"
same,Potency,[9],"inconclusive: 16.6 nM [rising, full curve, poor fit]"
same,Potency,[10],inactive
same,Potency,[11],inactive
